Source: article PMC5864832
These are yes or no findings as the source states them, for the method shown. In cells and extracts the contact can be indirect. Here binding means that the protein was enriched with, or labelled near, the bait; the list need not be complete. Blank lines part the entries; values can stand above or below the molecule they belong to.

Sequences of proteins named here, by UniProt entry; tags and fusion partners are left off. Residues count along the entry.
UniProt P49336: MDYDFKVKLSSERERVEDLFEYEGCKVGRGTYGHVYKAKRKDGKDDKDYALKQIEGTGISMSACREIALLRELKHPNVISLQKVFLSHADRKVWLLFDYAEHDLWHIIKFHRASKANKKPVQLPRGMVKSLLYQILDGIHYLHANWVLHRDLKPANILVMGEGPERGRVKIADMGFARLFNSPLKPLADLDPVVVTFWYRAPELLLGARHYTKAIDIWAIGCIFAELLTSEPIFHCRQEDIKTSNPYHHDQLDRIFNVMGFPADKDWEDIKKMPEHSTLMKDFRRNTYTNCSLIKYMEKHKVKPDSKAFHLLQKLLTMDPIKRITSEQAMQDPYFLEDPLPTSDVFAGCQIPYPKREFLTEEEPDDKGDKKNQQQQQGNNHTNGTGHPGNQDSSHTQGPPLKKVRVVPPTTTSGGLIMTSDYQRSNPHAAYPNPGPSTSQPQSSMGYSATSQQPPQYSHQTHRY
UniProt Q9UHV7: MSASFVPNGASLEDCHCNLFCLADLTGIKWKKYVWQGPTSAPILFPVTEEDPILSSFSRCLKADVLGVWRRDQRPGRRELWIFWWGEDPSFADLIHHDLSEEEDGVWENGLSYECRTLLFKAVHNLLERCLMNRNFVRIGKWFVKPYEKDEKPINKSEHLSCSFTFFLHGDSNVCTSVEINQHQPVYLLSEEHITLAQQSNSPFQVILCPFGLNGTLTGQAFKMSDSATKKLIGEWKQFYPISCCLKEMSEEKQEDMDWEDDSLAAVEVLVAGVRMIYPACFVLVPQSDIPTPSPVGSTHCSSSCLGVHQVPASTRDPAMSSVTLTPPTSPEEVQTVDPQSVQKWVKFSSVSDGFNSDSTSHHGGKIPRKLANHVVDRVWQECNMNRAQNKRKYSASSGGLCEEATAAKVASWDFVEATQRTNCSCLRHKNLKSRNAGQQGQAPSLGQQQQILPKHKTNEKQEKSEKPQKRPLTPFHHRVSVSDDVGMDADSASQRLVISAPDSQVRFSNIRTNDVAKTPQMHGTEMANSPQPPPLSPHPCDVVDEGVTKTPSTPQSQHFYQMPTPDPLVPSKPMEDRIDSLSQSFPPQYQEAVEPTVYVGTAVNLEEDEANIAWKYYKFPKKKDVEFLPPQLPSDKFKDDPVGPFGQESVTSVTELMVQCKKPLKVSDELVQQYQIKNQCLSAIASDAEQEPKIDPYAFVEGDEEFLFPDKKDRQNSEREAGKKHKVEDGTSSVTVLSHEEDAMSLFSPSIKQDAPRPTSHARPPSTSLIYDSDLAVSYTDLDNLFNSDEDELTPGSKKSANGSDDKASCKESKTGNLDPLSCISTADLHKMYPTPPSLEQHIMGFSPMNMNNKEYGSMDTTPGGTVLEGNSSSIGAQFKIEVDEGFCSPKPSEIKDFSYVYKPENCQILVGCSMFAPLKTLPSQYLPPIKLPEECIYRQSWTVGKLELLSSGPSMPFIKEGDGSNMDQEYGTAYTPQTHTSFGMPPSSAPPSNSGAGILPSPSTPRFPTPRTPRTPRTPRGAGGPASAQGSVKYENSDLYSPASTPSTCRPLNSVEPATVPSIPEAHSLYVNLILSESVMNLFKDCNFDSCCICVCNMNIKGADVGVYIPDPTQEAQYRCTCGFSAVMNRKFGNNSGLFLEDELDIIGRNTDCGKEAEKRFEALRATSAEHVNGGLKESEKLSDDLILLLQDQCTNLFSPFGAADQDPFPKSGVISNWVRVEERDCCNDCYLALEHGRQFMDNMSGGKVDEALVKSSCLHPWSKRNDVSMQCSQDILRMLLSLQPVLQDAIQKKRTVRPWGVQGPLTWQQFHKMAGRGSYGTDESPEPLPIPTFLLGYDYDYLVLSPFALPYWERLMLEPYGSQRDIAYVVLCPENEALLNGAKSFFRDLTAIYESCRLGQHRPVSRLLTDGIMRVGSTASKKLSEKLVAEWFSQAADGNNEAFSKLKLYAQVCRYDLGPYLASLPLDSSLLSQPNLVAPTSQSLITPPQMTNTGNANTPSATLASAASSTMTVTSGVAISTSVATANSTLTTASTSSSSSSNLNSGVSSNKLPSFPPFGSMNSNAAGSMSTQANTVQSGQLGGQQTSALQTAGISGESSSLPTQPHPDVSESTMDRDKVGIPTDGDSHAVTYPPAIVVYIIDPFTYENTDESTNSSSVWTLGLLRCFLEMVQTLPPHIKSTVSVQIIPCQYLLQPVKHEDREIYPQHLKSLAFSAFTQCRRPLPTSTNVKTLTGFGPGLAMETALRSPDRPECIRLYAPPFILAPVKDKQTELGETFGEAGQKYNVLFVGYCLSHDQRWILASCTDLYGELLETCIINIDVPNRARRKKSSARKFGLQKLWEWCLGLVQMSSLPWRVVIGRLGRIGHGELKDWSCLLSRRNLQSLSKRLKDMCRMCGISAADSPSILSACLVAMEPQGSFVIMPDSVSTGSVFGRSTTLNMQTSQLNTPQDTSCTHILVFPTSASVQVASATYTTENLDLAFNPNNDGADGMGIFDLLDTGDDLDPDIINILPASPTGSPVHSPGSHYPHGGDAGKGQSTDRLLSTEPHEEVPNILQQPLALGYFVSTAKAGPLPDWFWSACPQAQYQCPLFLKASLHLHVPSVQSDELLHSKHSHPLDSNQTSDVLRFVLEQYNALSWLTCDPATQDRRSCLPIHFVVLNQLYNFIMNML
UniProt P02545, residues 1-646: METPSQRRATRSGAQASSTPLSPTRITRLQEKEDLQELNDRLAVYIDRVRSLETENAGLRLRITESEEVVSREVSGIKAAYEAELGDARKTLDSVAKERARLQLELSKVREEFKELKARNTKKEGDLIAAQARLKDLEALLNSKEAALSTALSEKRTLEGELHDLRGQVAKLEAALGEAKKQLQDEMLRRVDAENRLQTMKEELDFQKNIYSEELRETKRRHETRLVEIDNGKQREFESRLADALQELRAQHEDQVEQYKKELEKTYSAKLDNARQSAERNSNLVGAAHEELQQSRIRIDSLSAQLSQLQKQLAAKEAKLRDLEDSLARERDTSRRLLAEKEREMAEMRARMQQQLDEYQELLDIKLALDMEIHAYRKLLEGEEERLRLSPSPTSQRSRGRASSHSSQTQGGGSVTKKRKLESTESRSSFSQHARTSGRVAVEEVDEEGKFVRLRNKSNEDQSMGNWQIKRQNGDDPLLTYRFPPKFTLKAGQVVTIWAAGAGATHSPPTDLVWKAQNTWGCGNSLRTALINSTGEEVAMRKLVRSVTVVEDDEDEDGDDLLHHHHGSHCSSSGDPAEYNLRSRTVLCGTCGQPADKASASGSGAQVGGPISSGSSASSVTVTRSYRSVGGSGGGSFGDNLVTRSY
UniProt Q15648: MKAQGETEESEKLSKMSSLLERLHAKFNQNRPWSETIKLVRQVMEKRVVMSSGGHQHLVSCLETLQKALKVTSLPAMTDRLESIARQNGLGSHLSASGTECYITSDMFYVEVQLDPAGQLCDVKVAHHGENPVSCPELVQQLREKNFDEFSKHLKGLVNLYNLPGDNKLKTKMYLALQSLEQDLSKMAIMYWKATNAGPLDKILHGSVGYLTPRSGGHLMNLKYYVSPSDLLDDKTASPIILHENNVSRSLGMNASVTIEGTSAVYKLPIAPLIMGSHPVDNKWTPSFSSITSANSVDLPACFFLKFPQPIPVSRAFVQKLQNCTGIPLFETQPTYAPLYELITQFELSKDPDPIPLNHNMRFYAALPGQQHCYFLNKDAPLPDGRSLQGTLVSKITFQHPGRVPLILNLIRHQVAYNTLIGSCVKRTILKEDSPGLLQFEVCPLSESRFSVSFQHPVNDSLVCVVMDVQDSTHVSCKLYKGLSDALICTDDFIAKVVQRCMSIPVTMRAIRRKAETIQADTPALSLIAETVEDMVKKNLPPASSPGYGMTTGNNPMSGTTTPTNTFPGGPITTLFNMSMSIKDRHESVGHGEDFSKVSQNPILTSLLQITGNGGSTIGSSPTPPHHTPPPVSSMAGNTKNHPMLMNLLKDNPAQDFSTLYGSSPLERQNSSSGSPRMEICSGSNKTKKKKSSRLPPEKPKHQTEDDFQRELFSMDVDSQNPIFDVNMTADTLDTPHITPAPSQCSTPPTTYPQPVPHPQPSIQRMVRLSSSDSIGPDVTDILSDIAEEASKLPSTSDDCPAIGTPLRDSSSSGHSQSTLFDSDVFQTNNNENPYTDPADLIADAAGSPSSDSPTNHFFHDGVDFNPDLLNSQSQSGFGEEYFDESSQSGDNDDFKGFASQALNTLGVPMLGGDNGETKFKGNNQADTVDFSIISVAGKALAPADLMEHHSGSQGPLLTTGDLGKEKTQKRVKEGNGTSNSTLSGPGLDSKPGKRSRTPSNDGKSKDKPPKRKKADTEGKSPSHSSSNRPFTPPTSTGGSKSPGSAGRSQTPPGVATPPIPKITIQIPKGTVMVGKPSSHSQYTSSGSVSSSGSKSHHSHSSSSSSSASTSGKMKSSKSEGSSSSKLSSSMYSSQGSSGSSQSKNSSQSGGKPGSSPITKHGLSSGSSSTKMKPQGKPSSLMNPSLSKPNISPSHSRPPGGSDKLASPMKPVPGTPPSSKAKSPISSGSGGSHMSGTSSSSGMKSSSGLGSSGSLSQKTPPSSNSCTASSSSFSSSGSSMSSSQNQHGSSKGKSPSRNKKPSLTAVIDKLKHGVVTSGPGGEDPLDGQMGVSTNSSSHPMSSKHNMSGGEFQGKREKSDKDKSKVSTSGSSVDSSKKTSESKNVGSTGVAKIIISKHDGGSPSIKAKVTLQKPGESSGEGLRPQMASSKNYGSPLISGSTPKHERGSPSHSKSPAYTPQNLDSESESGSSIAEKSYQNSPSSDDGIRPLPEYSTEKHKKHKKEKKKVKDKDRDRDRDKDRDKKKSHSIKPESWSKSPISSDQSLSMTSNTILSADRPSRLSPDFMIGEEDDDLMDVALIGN
UniProt Q96RN5: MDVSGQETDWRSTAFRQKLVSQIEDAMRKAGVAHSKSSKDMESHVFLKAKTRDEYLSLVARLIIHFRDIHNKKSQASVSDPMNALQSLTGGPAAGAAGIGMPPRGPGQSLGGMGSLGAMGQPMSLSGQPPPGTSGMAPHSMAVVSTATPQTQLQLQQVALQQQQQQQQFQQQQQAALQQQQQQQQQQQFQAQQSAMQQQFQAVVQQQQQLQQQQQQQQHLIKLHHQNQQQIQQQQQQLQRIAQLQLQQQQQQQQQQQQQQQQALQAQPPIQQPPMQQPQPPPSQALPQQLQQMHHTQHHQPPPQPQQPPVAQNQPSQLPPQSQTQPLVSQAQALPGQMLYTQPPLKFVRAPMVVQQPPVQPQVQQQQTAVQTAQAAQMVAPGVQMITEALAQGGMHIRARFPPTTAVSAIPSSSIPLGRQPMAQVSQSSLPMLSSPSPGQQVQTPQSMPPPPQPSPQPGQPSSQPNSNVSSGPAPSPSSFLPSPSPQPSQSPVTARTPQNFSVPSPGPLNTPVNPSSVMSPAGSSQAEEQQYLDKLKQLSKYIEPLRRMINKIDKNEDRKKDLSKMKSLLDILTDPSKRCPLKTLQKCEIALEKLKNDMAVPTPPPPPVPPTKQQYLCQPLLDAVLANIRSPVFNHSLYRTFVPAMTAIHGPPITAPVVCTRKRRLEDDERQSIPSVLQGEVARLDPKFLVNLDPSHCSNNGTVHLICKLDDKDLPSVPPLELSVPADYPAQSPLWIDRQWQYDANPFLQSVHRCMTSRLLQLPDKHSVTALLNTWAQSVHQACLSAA

Assays:
[1] = molecular target: cyclin-dependent kinase (CDK) 8 (human) (UniProt P49336); assay: affinity purification with mass spectrometry + proximity labelling; bait-normalised prey PSM values of AP-MS and of BioID of the same MAC-tagged bait integrated to a relative distance between bait and prey
[2] = molecular target: mediator of RNA polymerase II transcription subunit 13 (human) (UniProt Q9UHV7); assay: as above
[3] = molecular target: Prelamin-A/C (human) (UniProt P02545); assay: proximity labelling; BioID: MAC-tagged bait in stable Flp-In T-REx 293 cells, tetracycline and 50 uM biotin 24 h; lysis buffer 2 (as buffer 1 with 0.1% SDS), sonication, benzonase; biotinylated proteins on Strep-Tactin beads; LC-MS; SAINT and CRAPome filter

Molecule: MED14 (from UniProt O60244 1-1454)
binding [1]: binds
binding [2]: binds

Molecule: MED1 (from UniProt Q15648 1-1581)
binding [1]: binds
binding [2]: binds

Molecule: MED15 (from UniProt Q96RN5 1-788)
binding [1]: binds
binding [2]: binds

B1: MED6 (protein, UniProt O75586 1-246)
chain: MAAVDIRDNLLGISWVDSSWIPILNSGSVLDYFSERSNPFYDRTCNNEVVKMQRLTLEHLNQMVGIEYILLHAQEPILFIIRKQQRQSPAQVIPLADYYIIAGVIYQAPDLGSVINSRVLTAVHGIQSAFDEAMSYCRYHPSKGYWWHFKDHEEQDKVRPKAKRKEEPSSIFQRQRVDALLLDLRQKFPPKFVQLKPGEKPVPVDQTKKEAEPIPETVKPEEKETTKNVQQTVSAKGPPEKRMRLQ
binding [1]: binds
binding [2]: binds

B7: MED4 (protein, UniProt Q9NPJ6 1-270)
chain: MAASSSGEKEKERLGGGLGVAGGNSTRERLLSALEDLEVLSRELIEMLAISRNQKLLQAGEENQVLELLIHRDGEFQELMKLALNQGKIHHEMQVLEKEVEKRDSDIQQLQKQLKEAEQILATAVYQAKEKLKSIEKARKGAISSEEIIKYAHRISASNAVCAPLTWVPGDPRRPYPTDLEMRSGLLGQMNNPSTNGVNGHLPGDALAAGRLPDVLAPQYPWQSNDMSMNMLPPNHSSDFLLEPPGHNKENEDDVEIMSTDSSSSSSESD
binding [1]: binds
binding [2]: binds

Other lines, results leading:

binding [1]: binds
binding [2]: binds
B2: MED16 (protein, UniProt Q9Y2X0 1-877)
chain: MCDLRRPAAGGMMDLAYVCEWEKWSKSTHCPSVPLACAWSCRNLIAFTMDLRSDDQDLTRMIHILDTEHPWDLHSIPSEHHEAITCLEWDQSGSRLLSADADGQIKCWSMADHLANSWESSVGSLVEGDPIVALSWLHNGVKLALHVEKSGASSFGEKFSRVKFSPSLTLFGGKPMEGWIAVTVSGLVTVSLLKPSGQVLTSTESLCRLRGRVALADIAFTGGGNIVVATADGSSASPVQFYKVCVSVVSEKCRIDTEILPSLFMRCTTDLNRKDKFPAITHLKFLARDMSEQVLLCASSQTSSIVECWSLRKEGLPVNNIFQQISPVVGDKQPTILKWRILSATNDLDRVSAVALPKLPISLTNTDLKVASDTQFYPGLGLALAFHDGSVHIVHRLSLQTMAVFYSSAAPRPVDEPAMKRPRTAGPAVHLKAMQLSWTSLALVGIDSHGKLSVLRLSPSMGHPLEVGLALRHLLFLLEYCMVTGYDWWDILLHVQPSMVQSLVEKLHEEYTRQTAALQQVLSTRILAMKASLCKLSPCTVTRVCDYHTKLFLIAISSTLKSLLRPHFLNTPDKSPGDRLTEICTKITDVDIDKVMINLKTEEFVLDMNTLQALQQLLQWVGDFVLYLLASLPNQGSLLRPGHSFLRDGTSLGMLRELMVVIRIWGLLKPSCLPVYTATSDTQDSMSLLFRLLTKLWICCRDEGPASEPDEALVDECCLLPSQLLIPSLDWLPASDGLVSRLQPKQPLRLQFGRAPTLPGSAATLQLDGLARAPGQPKIDHLRRLHLGACPTEECKACTRCGCVTMLKSPNRTTAVKQWEQRWIKNCLAVEGRGPDACVTSRASEEAPAFVQLGPQSTHHSPRTPRSLDHLHPEDRP

binding [3]: binds
B3: NU160 (protein, UniProt Q12769 1-1436)
chain: MLHLSAAPPAPPPEVTATARPCLCSVGRRGDGGKMAAAGALERSFVELSGAERERPRHFREFTVCSIGTANAVAGAVKYSESAGGFYYVESGKLFSVTRNRFIHWKTSGDTLELMEESLDINLLNNAIRLKFQNCSVLPGGVYVSETQNRVIILMLTNQTVHRLLLPHPSRMYRSELVVDSQMQSIFTDIGKVDFTDPCNYQLIPAVPGISPNSTASTAWLSSDGEALFALPCASGGIFVLKLPPYDIPGMVSVVELKQSSVMQRLLTGWMPTAIRGDQSPSDRPLSLAVHCVEHDAFIFALCQDHKLRMWSYKEQMCLMVADMLEYVPVKKDLRLTAGTGHKLRLAYSPTMGLYLGIYMHAPKRGQFCIFQLVSTESNRYSLDHISSLFTSQETLIDFALTSTDIWALWHDAENQTVVKYINFEHNVAGQWNPVFMQPLPEEEIVIRDDQDPREMYLQSLFTPGQFTNEALCKALQIFCRGTERNLDLSWSELKKEVTLAVENELQGSVTEYEFSQEEFRNLQQEFWCKFYACCLQYQEALSHPLALHLNPHTNMVCLLKKGYLSFLIPSSLVDHLYLLPYENLLTEDETTISDDVDIARDVICLIKCLRLIEESVTVDMSVIMEMSCYNLQSPEKAAEQILEDMITIDVENVMEDICSKLQEIRNPIHAIGLLIREMDYETEVEMEKGFNPAQPLNIRMNLTQLYGSNTAGYIVCRGVHKIASTRFLICRDLLILQQLLMRLGDAVIWGTGQLFQAQQDLLHRTAPLLLSYYLIKWGSECLATDVPLDTLESNLQHLSVLELTDSGALMANRFVSSPQTIVELFFQEVARKHIISHLFSQPKAPLSQTGLNWPEMITAITSYLLQLLWPSNPGCLFLECLMGNCQYVQLQDYIQLLHPWCQVNVGSCRFMLGRCYLVTGEGQKALECFCQAASEVGKEEFLDRLIRSEDGEIVSTPRLQYYDKVLRLLDVIGLPELVIQLATSAITEAGDDWKSQATLRTCIFKHHLDLGHNSQAYEALTQIPDSSRQLDCLRQLVVVLCERSQLQDLVEFPYVNLHNEVVGIIESRARAVDLMTHNYYELLYAFHIYRHNYRKAGTVMFEYGMRLGREVRTLRGLEKQGNCYLAALNCLRLIRPEYAWIVQPVSGAVYDRPGASPKRNHDGECTAAPTNRQIEILELEDLEKECSLARIRLTLAQHDPSAVAVAGSSSAEEMVTLLVQAGLFDTAISLCQTFKLPLTPVFEGLAFKCIKLQFGGEAAQAEAWAWLAANQLSSVITTKESSATDEAWRLLSTYLERYKVQNNLYHHCVINKLLSHGVPLPNWLINSYKKVDAAELLRLYLNYDLLEEAVDLVSEYVDAVLGKGHQYFGIEFPLSATAPMVWLPYSSIDQLLQALGENSANSHNIALSQKILDKLEDYQQKVDKATRDLLYRRTL

binding [3]: binds
B4: NUP37 (protein, UniProt Q8NFH4 1-326)
chain: MKQDASRNAAYTVDCEDYVHVVEFNPFENGDSGNLIAYGGNNYVVIGTCTFQEEEADVEGIQYKTLRTFHHGVRVDGIAWSPETRLDSLPPVIKFCTSAADMKIRLFTSDLQDKNEYKVLEGHTDFINGLVFDPKEGQEIASVSDDHTCRIWNLEGVQTAHFVLHSPGMSVCWHPEETFKLMVAEKNGTIRFYDLLAQQAILSLESEQVPLMSAHWCLKNTFKVGAVAGNDWLIWDITRSSYPQNKRPVHMDRACLFRWSTISENLFATTGYPGKMASQFQIHHLGHPQPILMGSVAVGSGLSWHRTLPLCVIGGDHKLLFWVTEV

binding [3]: binds
B5: NUP43 (protein, UniProt Q8NFH3 1-380)
chain: MEEIYAKFVSQKISKTRWRPLPPGSLQTAETFATGSWDNEENYISLWSIGDFGNLDSDGGFEGDHQLLCDIRHHGDVMDLQFFDQERIVAASSTGCVTVFLHHPNNQTLSVNQQWTTAHYHTGPGSPSYSSAPCTGVVCNNPEIVTVGEDGRINLFRADHKEAVRTIDNADSSTLHAVTFLRTPEILTVNSIGQLKIWDFRQQGNEPSQILSLTGDRVPLHCVDRHPNQQHVVATGGQDGMLSIWDVRQGTMPVSLLKAHEAEMWEVHFHPSNPEHLFTCSEDGSLWHWDASTDVPEKSSLFHQGGRSSTFLSHSISNQANVHQSVISSWLSTDPAKDRIEITSLLPSRSLSVNTLDVLGPCLVCGTDAEAIYVTRHLFS

binding [3]: binds
B6: NUP85 (protein, UniProt Q9BW27 1-656)
chain: MEELDGEPTVTLIPGVNSKKNQMYFDWGPGEMLVCETSFNKKEKSEMVPSCPFIYIIRKDVDVYSQILRKLFNESHGIFLGLQRIDEELTGKSRKSQLVRVSKNYRSVIRACMEEMHQVAIAAKDPANGRQFSSQVSILSAMELIWNLCEILFIEVAPAGPLLLHLLDWVRLHVCEVDSLSADVLGSENPSKHDSFWNLVTILVLQGRLDEARQMLSKEADASPASAGICRIMGDLMRTMPILSPGNTQTLTELELKWQHWHEECERYLQDSTFATSPHLESLLKIMLGDEAALLEQKELLSNWYHFLVTRLLYSNPTVKPIDLHYYAQSSLDLFLGGESSPEPLDNILLAAFEFDIHQVIKECSIALSNWWFVAHLTDLLDHCKLLQSHNLYFGSNMREFLLLEYASGLFAHPSLWQLGVDYFDYCPELGRVSLELHIERIPLNTEQKALKVLRICEQRQMTEQVRSICKILAMKAVRNNRLGSALSWSIRAKDAAFATLVSDRFLRDYCERGCFSDLDLIDNLGPAMMLSDRLTFLGKYREFHRMYGEKRFADAASLLLSLMTSRIAPRSFWMTLLTDALPLLEQKQVIFSAEQTYELMRCLEDLTSRRPVHGESDTEQLQDDDIETTKVEMLRLSLARNLARAIIREGSLEGS

binding [1]: binds
binding [2]: binds
B8: MED27 (protein, UniProt Q6P2C8 1-311)
chain: MADVINVSVNLEAFSQAISAIQALRSSVSRVFDCLKDGMRNKETLEGREKAFIAHFQDNLHSVNRDLNELERLSNLVGKPSENHPLHNSGLLSLDPVQDKTPLYSQLLQAYKWSNKLQYHAGLASGLLNQQSLKRSANQMGVSAKRRPKAQPTTLVLPPQYVDDVISRIDRMFPEMSIHLSRPNGTSAMLLVTLGKVLKVIVVMRSLFIDRTIVKGYNENVYTEDGKLDIWSKSNYQVFQKVTDHATTALLHYQLPQMPDVVVRSFMTWLRSYIKLFQAPCQRCGKFLQDGLPPTWRDFRTLEAFHDTCRQ
